Measurements reported in PubChem BioAssay AID1259425 (University of Nebraska Medical Center, 2018)

Test: 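Find knockdowns that reproduce the gene expression pattern seen when KSR1 is lost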 (primary screen)
Cell system: HCT116 human colon cancer cells
Reagent: siRNA pool against human genes, 50 nM siRNA
Measurement: 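After 50 nM siRNA pool, branched-DNA assay measures six marker transcripts per well, minus blank, normalised to the geometric mean of two housekeeping transcripts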
Reading the numbers: BNIP3L mRNA: higher = more BNIP3L transcript after knockdown; NDRG1 mRNA: higher = more NDRG1 transcript after knockdown
The deposit covers about 14,000 reagents; this is a random part of them. A reagent listed more than once was tested more than once; the source does not tell the runs apart. Not all columns of the deposit are shown. The record does not give: the time to read-out.

| target gene | BNIP3L mRNA, set 1 | NDRG1 mRNA, set 1 |
| --- | --- | --- |
| INO80D (INO80 complex subunit D) | 0.0418 | 0.0741 |
| PYGO1 (pygopus family PHD finger 1) | 0.164 | 0.448 |
| NIPSNAP3A (nipsnap homolog 3A) | 0.063 | 0.0771 |
| TRIM46 (tripartite motif containing 46) | 0.117 | 0.26 |
| NCKIPSD (NCK interacting protein with SH3 domain) | 0.063 | 0.27 |
| NCKIPSD (NCK interacting protein with SH3 domain) | 0.0564 | 0.143 |
| UPK2 (uroplakin 2) | 0.158 | 0.545 |
| MTNR1A (melatonin receptor 1A) | 0.207 | 0.135 |
| KRT32 (keratin 32) | 0.0783 | 0.142 |
| VCP (valosin containing protein) | 0.478 | 1.29 |
| LRRN1 (leucine rich repeat neuronal 1) | 0.11 | 0.491 |
| ACAA2 (acetyl-CoA acyltransferase 2) | 0.0699 | 0.0911 |
| ULBP3 (UL16 binding protein 3) | 0.355 | 0.424 |
| CHMP1B (charged multivesicular body protein 1B) | 0.0997 | 0.138 |
| STIM1 (stromal interaction molecule 1) | 0.104 | 0.364 |
| KLF3-AS1 (KLF3 antisense RNA 1) | 0.125 | 0.33 |
| TSC1 (TSC complex subunit 1) | 0.0849 | 0.0791 |
| LRP3 (LDL receptor related protein 3) | 0.108 | 0.19 |
| EIF3A (eukaryotic translation initiation factor 3 subunit A) | 0.0373 | 0.0771 |
| UBE2D3 (ubiquitin conjugating enzyme E2 D3) | 0.129 | 0.198 |
| DPH5 (diphthamide biosynthesis 5) | 0.0871 | 0.328 |
| FEN1 (flap structure-specific endonuclease 1) | 0.0939 | 0.47 |
| KCNAB1 | 0.106 | 0.192 |
| XCL2 (X-C motif chemokine ligand 2) | 0.124 | 0.164 |
| KIAA1671 | 0.0929 | 0.255 |
| RPL8 (ribosomal protein L8) | 0.673 | 0.842 |
| FGFR3 (fibroblast growth factor receptor 3) | 0.125 | 0.0861 |
| MARCHF7 (membrane associated ring-CH-type finger 7) | 0.0896 | 0.132 |
| C11orf24 (chromosome 11 open reading frame 24) | 0.0825 | 0.277 |
| SYT4 (synaptotagmin 4) | 0.0908 | 0.181 |
| PPM1L (protein phosphatase, Mg2+/Mn2+ dependent 1L) | 0.0552 | 0.124 |
| MARCHF5 (membrane associated ring-CH-type finger 5) | 0.112 | 0.123 |
| UBR4 (ubiquitin protein ligase E3 component n-recognin 4) | 0.132 | 0.13 |
| RPRD1A (regulation of nuclear pre-mRNA domain containing 1A) | 0.0491 | 0.155 |
| CCDC181 (coiled-coil domain containing 181) | 0.0726 | 0.135 |
| RESF1 (retroelement silencing factor 1) | 0.0404 | 0.136 |
| CLDN10 (claudin 10) | 0.0557 | 0.276 |
| TRAPPC10 (trafficking protein particle complex subunit 10) | 0.115 | 0.21 |
| ANXA13 (annexin A13) | 0.102 | 0.19 |
| SNX1 (sorting nexin 1) | 0.11 | 0.193 |
| RRAGC (Ras related GTP binding C) | 0.178 | 0.112 |
| FBP1 (fructose-bisphosphatase 1) | 0.113 | 0.17 |
| PCMTD2 | 0.0531 | 0.119 |
| NFAT5 (nuclear factor of activated T cells 5) | 0.104 | 0.215 |
| DSN1 (DSN1 component of MIS12 kinetochore complex) | 0.0938 | 0.152 |
| BMPR2 (bone morphogenetic protein receptor type 2) | 0.0793 | 0.0836 |
| PTCH1 (patched 1) | 0.0399 | 0.0674 |
| MOCS2 (molybdenum cofactor synthesis 2) | 0.0655 | 0.198 |
| TMBIM4 (transmembrane BAX inhibitor motif containing 4) | 0.169 | 0.425 |
| LAMP2 (lysosome associated membrane protein 2) | 0.088 | 0.0632 |

2 entries from above, reduced to “BNIP3L mRNA, set 1”:
KLF3-AS1 (KLF3 antisense RNA 1): 0.125
TSC1 (TSC complex subunit 1): 0.0849
